For at least one entry, the source does not settle the construct or the ends of the probe. At least one result comes from cells or an extract, where the contact may be indirect. Negatives hold for the conditions tested. At least one verdict rests on a figure or table, not on a statement of the authors. For part of these data: The comparison behind a weaker result is the experiment's own reference, which may not be listed here.
Assays:
[1] = biological target: hnRNP L (UniProt P14866); test: pull-down; details: 5-azido-C3-UTP (33%) internal, 50 pmol biotinylated RNA on streptavidin beads with HeLa lysate in RIPA (50 mM Tris-Cl pH 7.4, 150 mM NaCl, 5 mM EDTA, 1% NP-40), washed at 300 mM KCl, protein in an extract, label: biotin (DBCO-PEG4, internal U)
[2] = biological target: IMP3 (UniProt O00425); test: pull-down; details: 5-azido-C3-UTP (33%) internal, 50 pmol biotinylated RNA on streptavidin beads with HeLa lysate in RIPA (50 mM Tris-Cl pH 7.4, 150 mM NaCl, 5 mM EDTA, 1% NP-40), washed at 300 mM KCl, protein in an extract, label: biotin (DBCO-PEG4, internal U)

The chains behind the UniProt entries cited, without tags or fusion partners. Where a name states a change or a piece, a line headed by the entry shows the natural chain unless it says otherwise.
UniProt P14866: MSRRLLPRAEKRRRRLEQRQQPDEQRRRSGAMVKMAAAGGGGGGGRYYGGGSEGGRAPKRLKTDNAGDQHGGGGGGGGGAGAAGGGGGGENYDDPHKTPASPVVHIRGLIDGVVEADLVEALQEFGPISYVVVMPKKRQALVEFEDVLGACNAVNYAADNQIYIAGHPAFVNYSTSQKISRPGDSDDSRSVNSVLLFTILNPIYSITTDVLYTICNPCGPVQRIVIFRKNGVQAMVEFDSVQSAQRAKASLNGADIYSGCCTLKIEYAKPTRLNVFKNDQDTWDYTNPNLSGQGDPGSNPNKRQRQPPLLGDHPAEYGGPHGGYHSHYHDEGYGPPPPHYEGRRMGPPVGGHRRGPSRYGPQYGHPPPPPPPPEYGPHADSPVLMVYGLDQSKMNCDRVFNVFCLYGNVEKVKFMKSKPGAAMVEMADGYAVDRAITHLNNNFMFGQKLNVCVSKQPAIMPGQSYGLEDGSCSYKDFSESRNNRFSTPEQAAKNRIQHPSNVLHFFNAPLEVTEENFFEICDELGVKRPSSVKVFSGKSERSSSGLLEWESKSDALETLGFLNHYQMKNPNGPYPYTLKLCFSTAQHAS
UniProt O00425, whole entry: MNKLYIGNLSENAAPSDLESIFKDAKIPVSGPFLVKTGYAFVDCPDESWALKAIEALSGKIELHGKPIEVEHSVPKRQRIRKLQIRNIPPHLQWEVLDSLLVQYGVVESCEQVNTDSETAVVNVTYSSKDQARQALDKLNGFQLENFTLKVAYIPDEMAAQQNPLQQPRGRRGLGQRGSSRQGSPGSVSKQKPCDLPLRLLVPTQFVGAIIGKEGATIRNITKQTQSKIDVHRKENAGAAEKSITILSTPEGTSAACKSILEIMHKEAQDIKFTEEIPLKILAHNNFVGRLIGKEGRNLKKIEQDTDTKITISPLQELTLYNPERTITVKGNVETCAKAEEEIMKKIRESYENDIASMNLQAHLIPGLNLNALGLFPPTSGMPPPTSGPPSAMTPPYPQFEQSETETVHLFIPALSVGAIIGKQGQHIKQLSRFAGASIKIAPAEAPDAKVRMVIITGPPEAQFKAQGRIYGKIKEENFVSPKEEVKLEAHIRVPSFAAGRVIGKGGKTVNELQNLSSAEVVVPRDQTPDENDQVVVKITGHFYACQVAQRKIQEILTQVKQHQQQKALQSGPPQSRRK

Sequence | binding result ([1]; circular (T4 RNA ligase)) | binding result [1] | binding result ([2]; circular (T4 RNA ligase)) | binding result [2] | other results
GGGAGUAAGCAUACAUGACACACACACGCAGCUUACAGUA [CA-SELEX (L#51) circular] | binds |  |  |  | binding result ([2]; background level, circular (T4 RNA ligase)): no binding
GGGAGUAAGCAUACAUGACACACACACGCAGCUUACAGUA [CA-SELEX (L#51) linear] |  | binds |  |  | binding result ([2]; background level): no binding
GGGAGUAAGCCACACACACACACACACACACACACACACACACACACACAGCUUACAGUA [(CA)20 circular] | binds |  | binds more weakly |  | 
GGGAGUAAGCCACACACACACACACACACACACACACACACACACACACAGCUUACAGUA [(CA)20 linear] |  | binds |  | binds more weakly | 
GGGAGUAAGCCACACACACACACACACACACACACACACAGCUUACAGUA [(CA)15 circular] | binds |  | binds more weakly |  | 
GGGAGUAAGCCACACACACACACACACACACACACACACAGCUUACAGUA [(CA)15 linear] |  | binds |  | binds more weakly | 
GGGAGUAAGCCACACACACACACACACACAGCUUACAGUA [(CA)10 circular] | binds |  | binds more weakly |  | 
GGGAGUAAGCCACACACACACACACACACAGCUUACAGUA [(CA)10 linear] |  | binds |  | binds more weakly | 
GGGAGUAAGCCCUGCCUGUCUAUUGAUGUCGCUUACAGUA [control circular] | no binding |  |  |  | 
GGGAGUAAGCCCUGCCUGUCUAUUGAUGUCGCUUACAGUA [control linear] |  | no binding |  |  | 
